Test results published in paper doi:10.1101/2023.01.26.525711.
These are yes or no findings as the source states them, for the method shown. In cells and extracts the contact can be indirect. A result given as binding can be weak or reduced; the word gives no strength. Tags and fused reporters may be left off the sequences shown.

Sequences of proteins named here, by UniProt entry; tags and fusion partners are left off. A change or cut given only in a name is not applied to a line headed by its entry.
UniProt Q38997: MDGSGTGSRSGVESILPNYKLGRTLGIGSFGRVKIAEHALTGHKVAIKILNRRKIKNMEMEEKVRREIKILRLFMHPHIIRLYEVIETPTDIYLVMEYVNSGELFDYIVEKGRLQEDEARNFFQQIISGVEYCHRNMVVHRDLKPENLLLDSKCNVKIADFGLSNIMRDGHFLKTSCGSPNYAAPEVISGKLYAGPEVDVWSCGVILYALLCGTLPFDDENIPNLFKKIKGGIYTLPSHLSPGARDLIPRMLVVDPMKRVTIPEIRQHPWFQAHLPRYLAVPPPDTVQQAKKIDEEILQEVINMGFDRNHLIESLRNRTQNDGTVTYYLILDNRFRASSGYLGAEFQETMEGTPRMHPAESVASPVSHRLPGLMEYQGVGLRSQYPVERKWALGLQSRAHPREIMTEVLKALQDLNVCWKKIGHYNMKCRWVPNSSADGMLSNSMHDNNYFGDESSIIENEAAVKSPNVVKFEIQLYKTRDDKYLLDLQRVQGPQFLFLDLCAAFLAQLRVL

Biological target: T1, HOS1-GFP (35S::HOS1-GFP/hos1 complementation line 13-9) (Arabidopsis thaliana) (UniProt Q84JU6)
T1 sequence: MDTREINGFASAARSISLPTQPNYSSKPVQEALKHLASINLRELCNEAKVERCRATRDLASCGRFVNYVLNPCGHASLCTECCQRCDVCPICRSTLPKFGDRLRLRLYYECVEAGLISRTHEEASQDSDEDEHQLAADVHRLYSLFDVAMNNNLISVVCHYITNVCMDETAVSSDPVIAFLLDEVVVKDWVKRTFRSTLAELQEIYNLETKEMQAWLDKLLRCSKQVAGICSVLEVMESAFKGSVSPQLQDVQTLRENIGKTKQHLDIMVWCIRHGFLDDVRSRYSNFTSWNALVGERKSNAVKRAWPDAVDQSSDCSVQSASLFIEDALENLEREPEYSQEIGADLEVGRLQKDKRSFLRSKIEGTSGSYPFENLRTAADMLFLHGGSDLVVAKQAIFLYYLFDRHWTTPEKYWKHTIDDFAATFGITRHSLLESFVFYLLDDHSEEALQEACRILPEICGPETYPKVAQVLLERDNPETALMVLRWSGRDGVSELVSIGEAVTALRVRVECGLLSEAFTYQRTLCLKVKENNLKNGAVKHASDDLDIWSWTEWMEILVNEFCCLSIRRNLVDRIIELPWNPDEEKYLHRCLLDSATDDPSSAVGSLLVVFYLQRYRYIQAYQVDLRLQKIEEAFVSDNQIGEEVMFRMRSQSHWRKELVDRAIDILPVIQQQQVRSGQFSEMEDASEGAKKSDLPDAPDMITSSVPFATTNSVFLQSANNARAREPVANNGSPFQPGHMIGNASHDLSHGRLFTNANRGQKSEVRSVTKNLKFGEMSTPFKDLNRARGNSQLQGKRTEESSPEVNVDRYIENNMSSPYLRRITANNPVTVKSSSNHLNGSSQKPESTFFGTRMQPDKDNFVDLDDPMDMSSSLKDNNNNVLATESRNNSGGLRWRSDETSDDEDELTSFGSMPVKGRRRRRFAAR
Assay: co-IP

binding: binds
Substance: SnRK1α1 catalytic subunit, endogenous (from UniProt Q38997)
